# No constants are given. Whether binding was seen depends on the method and setting. In cells and extracts the contact can be indirect. Some entries that bind do so weakly or less than the wild type. Tags and fused reporters may be left off the sequences shown.
# Chains of the proteins cited; added tags and fusions are not shown.
# UniProt P28741: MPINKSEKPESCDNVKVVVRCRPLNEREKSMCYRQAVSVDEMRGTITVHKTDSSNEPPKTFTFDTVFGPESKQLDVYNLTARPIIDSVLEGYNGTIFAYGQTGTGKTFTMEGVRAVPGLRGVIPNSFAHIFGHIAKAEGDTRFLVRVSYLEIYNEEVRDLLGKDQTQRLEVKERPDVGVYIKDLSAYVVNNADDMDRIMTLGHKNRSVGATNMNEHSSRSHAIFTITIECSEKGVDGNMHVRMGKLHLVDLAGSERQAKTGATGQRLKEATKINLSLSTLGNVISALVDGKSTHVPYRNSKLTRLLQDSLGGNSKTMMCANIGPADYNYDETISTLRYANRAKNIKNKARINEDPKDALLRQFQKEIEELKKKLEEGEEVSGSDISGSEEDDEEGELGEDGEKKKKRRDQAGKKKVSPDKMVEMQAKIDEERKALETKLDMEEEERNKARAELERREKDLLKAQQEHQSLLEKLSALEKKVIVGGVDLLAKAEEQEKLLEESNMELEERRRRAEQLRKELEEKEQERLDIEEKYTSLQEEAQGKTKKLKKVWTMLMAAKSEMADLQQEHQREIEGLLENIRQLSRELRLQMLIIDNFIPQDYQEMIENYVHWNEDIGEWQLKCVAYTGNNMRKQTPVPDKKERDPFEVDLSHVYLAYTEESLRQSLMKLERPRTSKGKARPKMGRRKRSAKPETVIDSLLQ
# Molecular target: Kinesin family member 3A (mouse (endogenous in ovary)) (UniProt P28741)
# Assay: co-IP; rabbit anti-KIF3A antibody on Dynabeads Protein G, incubated with lysate of 6 mouse ovaries for 6 h at 4 °C, washed three times, eluted; partners detected by western blot
row,binding,Binder
1,binds,"histone deacetylase 6 (protein, UniProt Q9Z2V5 1-1149) MTSTGQDSSTRQRKSRHNPQSPLQESSATLKRGGKKCAVPHSSPNLAEVKKKGKMKKLSQPAEEDLVVGLQGLDLNPETRVPVGTGLVFDEQLNDFHCLWDDSFPESPERLHAIREQLILEGLLGRCVSFQARFAEKEELMLVHSLEYIDLMETTQYMNEGELRVLAETYDSVYLHPNSYSCACLATGSVLRLVDALMGAEIRNGMAVIRPPGHHAQHNLMDGYCMFNHLAVAARYAQKKHRIQRVLIVDWDVHHGQGTQFIFDQDPSVLYFSIHRYEHGRFWPHLKASNWSTIGFGQGQGYTINVPWNQTGMRDADYIAAFLHILLPVASEFQPQLVLVAAGFDALHGDPKGEMAATPAGFAHLTHLLMGLAGGKLILSLEGGYNLRALAKGVSASLHTLLGDPCPMLESCVVPCASAQTSIYCTLEALEPFWEVLERSVETQEEDEVEEAVLEEEEEEGGWEATALPMDTWPLLQNRTGLVYDEKMMSHCNLWDNHHPETPQRILRIMCHLEEVGLAARCLILPARPALDSELLTCHSAEYVEHLRTTEKMKTRDLHREGANFDSIYICPSTFACAKLATGAACRLVEAVLSGEVLNGIAVVRPPGHHAEPNAACGFCFFNSVAVAARHAQIIAGRALRILIVDWDVHHGNGTQHIFEDDPSVLYVSLHRYDRGTFFPMGDEGASSQVGRDAGIGFTVNVPWNGPRMGDADYLAAWHRLVLPIAYEFNPELVLISAGFDAAQGDPLGGCQVTPEGYAHLTHLLMGLAGGRIILILEGGYNLASISESMAACTHSLLGDPPPQLTLLRPPQSGALVSISEVIQVHRKYWRSLRLMKMEDKEECSSSRLVIKKLPPTASPVSAKEMTTPKGKVPEESVRKTIAALPGKESTLGQAKSKMAKAVLAQGQSSEQAAKGTTLDLATSKETVGGATTDLWASAAAPENFPNQTTSVEALGETEPTPPASHTNKQTTGASPLQGVTAQQSLQLGVLSTLELSREAEEAHDSEEGLLGEAAGGQDMNSLMLTQGFGDFNTQDVFYAVTPLSWCPHLMAVCPIPAAGLDVSQPCKTCGTVQENWVCLTCYQVYCSRYVNAHMVCHHEASEHPLVLSCVDLSTWCYVCQAYVHHEDLQDVKNAAHQNKFGEDMPHSH"
2,binds,"KIFC1 (protein, UniProt Q9QWT9 1-674) MDVQAQRPPLLEVKRNVELKAALVKSSSRVPLSASRLKRGPDQMEDALEPAKKRTRVMGAVTKVDTSRPRGPLLSTVSQTQGHTAAQKGPKKTGPRGCSAIGTVLRSQKPVPAAPAQKPGTSTAPVVVGKRAGKRPAWDLKGQLCDLNEELKRYREKTQTLELENRGLREQLREVQEQATTLGTERNTLEGELASVRSRAEQDQQRLETLSARVLELEECLGTRERLLQELQGERLQLQEERSTLSTQLEEQERRFQATEAALSSSQEEVVCLRQKTEAQVTLLAEQGDRLYGLEMERRRLHNQLQELKGNIRVFCRVRPVLEGESTPSPGFLVFPPGPAGPSDPPTGLSLSRSDDRRSTLTGAPAPTVRHDFSFDRVFPPGSKQEEVFEEIAMLVQSALDGYPVCIFAYGQTGSGKTFTMEGGPRGDPQLEGLIPRAMRHLFSVAQEMSGQGWTYSFVASYVEIYNETVRDLLATGPRKGQGGECEIRRASPGSEELTVTNARYVPVSCEKEVEALLHLAHQNRAVAHTAQNKRSSRSHSVFQLQISGEHAARGLQCGAPLNLVDLAGSERLDPGLHLGPGERDRLRETQAINSSLSTLGLVIMALSNKESHVPYRNSKLTYLLQNSLGGSAKMLMFVNISPLEENVSESLNSLRFASKVNQCVIGTAQANKK"

# — PMC11001723
